Experimental data reported in PubChem BioAssay (Tox21).
Where “and” joins values, the source holds several entries; their conditions need not be identical. Equal entries are not always repeated. The shares of active, inactive and inconclusive entries below differ from those in the screen. For some assays here: Where the call is inconclusive, the potency comes from a doubtful curve fit. Calls of active or inactive are those of the source. Unless noted, calls follow the shape of the full dose curve. Residues, ends and D or L forms follow the SMILES beside them.

By UniProt entry, the sequences of proteins in these tests, tags left out. Where a name states a change or a piece, a line headed by the entry shows the natural chain unless it says otherwise.
UniProt P30968: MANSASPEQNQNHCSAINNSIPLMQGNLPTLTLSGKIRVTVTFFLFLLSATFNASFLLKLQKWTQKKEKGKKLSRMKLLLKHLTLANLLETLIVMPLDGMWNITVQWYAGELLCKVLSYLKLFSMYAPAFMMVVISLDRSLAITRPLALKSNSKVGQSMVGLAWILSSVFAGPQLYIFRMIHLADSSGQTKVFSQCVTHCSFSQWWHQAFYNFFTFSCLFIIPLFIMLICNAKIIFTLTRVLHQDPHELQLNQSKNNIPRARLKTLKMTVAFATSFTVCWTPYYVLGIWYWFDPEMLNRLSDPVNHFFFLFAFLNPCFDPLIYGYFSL
UniProt P28223, whole entry, looked up: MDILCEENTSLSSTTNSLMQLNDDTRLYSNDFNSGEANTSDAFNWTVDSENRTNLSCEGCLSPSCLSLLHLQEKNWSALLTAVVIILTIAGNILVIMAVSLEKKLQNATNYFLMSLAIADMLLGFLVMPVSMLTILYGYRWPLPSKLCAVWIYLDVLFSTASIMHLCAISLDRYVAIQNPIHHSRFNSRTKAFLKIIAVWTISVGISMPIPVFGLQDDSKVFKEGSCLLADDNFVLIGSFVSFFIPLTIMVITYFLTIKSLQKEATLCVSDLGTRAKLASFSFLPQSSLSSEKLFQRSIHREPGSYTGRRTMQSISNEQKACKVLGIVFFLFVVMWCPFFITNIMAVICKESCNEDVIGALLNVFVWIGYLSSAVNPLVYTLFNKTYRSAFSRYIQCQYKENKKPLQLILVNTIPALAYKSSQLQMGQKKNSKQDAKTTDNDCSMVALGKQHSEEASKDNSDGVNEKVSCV
UniProt Q969F8, whole entry, looked up: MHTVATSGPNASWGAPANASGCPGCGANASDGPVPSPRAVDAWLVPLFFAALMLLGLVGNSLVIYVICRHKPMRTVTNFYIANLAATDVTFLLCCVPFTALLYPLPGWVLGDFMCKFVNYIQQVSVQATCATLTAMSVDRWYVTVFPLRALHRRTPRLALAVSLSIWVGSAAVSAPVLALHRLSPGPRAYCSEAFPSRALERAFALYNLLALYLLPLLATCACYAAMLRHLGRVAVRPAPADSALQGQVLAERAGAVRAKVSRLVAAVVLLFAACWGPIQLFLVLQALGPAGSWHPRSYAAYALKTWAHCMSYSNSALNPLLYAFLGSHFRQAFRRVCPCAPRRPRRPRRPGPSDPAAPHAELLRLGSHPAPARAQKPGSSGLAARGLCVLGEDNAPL
UniProt P11229: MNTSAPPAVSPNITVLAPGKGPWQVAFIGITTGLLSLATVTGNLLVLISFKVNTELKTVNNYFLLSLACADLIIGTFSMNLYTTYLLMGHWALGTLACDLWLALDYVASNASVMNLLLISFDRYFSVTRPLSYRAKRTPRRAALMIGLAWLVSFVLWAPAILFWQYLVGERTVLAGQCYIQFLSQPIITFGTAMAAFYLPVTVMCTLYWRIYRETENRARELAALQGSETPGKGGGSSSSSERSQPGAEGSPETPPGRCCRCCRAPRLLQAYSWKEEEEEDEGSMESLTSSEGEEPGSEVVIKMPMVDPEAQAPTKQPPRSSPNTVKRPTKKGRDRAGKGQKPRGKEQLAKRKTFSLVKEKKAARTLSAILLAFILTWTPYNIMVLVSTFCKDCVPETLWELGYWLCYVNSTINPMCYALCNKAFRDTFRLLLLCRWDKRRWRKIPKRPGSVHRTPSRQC
UniProt P14416, whole entry, looked up: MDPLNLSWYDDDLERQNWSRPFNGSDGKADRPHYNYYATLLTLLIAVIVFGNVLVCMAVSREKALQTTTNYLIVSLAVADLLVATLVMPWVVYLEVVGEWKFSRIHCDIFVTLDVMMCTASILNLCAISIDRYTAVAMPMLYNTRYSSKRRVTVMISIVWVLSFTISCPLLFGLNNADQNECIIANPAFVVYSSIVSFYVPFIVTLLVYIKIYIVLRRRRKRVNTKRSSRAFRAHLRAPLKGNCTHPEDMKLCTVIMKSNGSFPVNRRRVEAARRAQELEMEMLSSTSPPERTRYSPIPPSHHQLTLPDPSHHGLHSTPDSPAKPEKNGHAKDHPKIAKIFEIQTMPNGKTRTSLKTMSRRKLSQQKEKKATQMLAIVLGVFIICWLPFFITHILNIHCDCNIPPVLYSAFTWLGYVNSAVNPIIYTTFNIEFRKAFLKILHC

Legend:
[1] = Nuclear factor erythroid 2-related factor 2/antioxidant responsive element (Nrf2/ARE) small molecule agonists: luciferase reporter gene qHTS assay in human keratinocytes (AID 1919969); conditions: KeratinoSens HaCaT ARE-luciferase, luminescence, 24 h; activity, positive = activation: at 92.4 µM (top of the series); also: nearly all actives have a fitted effect of over 35% in size; also: potency is read from the fitted curve at half-maximal effect
[2] = target: Gonadotropin-releasing hormone receptor (Homo sapiens) (UniProt P30968); assay: Human gonadotropin-releasing hormone receptor (GnRHR) small molecule agonists, calcium flux assay in GnRHR-HEK293 cells (AID 1920063); conditions: calcium flux fluorescence, agonist mode; activity change: at 57.6 µM (top of the series), stronger effect = higher value unless noted; also: nearly all actives have a fitted effect of over 35% in size; also: potency is read from the fitted curve at half-maximal effect
Method in brief: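 Calcium flux, agonist mode, human GnRHR stably integrated in HEK293; dye 1 h at 37 C before compound; Ex/Em=480/540 kinetic read, 3 min; 15 concentrations, triplicate.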

[3] = p53 small molecule agonists, cell-based qHTS assay: qHTS cell viability counter screen (AID 1963581); also: potency is read from the fitted curve at half-maximal effect; nearly all actives have a fitted effect of over 45% in size
Method in brief: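 Multiplexed with the reporter read, a CellTiter-Glo step (30 min, room temperature) gauges ATP-based viability of HCT-116 p53RE-bla cells after 16 h compound incubation at 37 C.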

[4] = p53 small molecule agonists, cell-based qHTS assay (AID 1963582; active = well fitted activation curve with a large enough effect in the signal ratio in the repeat runs, not every such curve was filed as active; inconclusive = weak or mixed curves; the % refers to the signal ratio; also: potency is read from the fitted curve at half-maximal effect; as to activation: % is scaled to controls: 0 for no effect and ±100 for the full control effect); conditions: HCT-116 p53RE-bla reporter, beta-lactamase FRET ratio, 16 h; activation: at 66 µM (top of the series) unless noted
Method in brief: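 Beta-lactamase reporter cells (p53RE-bla) treated with compounds for 16 h at 37 C; FRET substrate, 2 h, room temperature; fluorescence intensity.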

[5] = target: 5-hydroxytryptamine receptor 2A (Homo sapiens) (UniProt P28223); assay: 5-hydroxytryptamine receptor 2A (HTR2A) small molecule agonists, cell-based qHTS assay (AID 1963587); also: potency is read from the fitted curve at half-maximal effect; nearly all actives have a fitted effect of over 30% in size
Method in brief: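 CHO cells stably expressing human HTR2A, plated 18 h, loaded with calcium dye 1 h at 37 C. Agonist mode: compounds added and intracellular calcium fluorescence recorded kinetically for 2 min at 1 sec intervals.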

[6] = target: KiSS-1 receptor (Homo sapiens) (UniProt Q969F8); assay: Human kisspeptin (KISS1R) small molecule agonists, calcium flux assay in KISS1R-HEK293 cells (AID 1920064; active = well fitted activation curve with a large enough effect in the repeat runs; inconclusive = weak or mixed curves; also: % is scaled to controls: 0 for no effect and ±100 for the full control effect)
Method in brief: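 Triplicate 15-concentration series were applied to dye-loaded human KISS1R HEK293 cells, and agonist-evoked calcium fluorescence was captured for 3 min.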

[7] = p53 small molecule agonists, cell-based qHTS assay with rat liver microsomes: qHTS cell viability counter screen (AID 1963580); also: potency is read from the fitted curve at half-maximal effect; nearly all actives have a fitted effect of over 45% in size
Method in brief: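 After the beta-lactamase ratio was read, CellTiter-Glo was added to the same wells and luminescence measured at 30 min; cells had been treated 16 h at 37 C with compounds, rat liver microsomes and NADPH (0.5 mg/mL final each).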

[8] = target: 5-hydroxytryptamine receptor 2A (Homo sapiens) (UniProt P28223); assay: 5-hydroxytryptamine receptor 2A (HTR2A) small molecule antagonists, cell-based qHTS assay (AID 1963586); also: % is scaled to controls: 0 for no effect and ±100 for the full control effect; nearly all actives have a fitted effect of over 45% in size
Method in brief: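 CHO cells stably expressing human HTR2A were plated for 18 h at 37 C, then loaded with calcium dye for 1 h. Compounds were preincubated 5 min at room temperature before DOI (4 nM solution) was added. Kinetic fluorescence was read for 3 min.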

[9] = cAMP Responsive Elements (CRE) small molecule antagonists, cell-based qHTS assay (AID 1963591; active = well fitted inhibition curve with a large enough effect in the signal ratio in the repeat runs, not every such curve was filed as active; inconclusive = weak or mixed curves, or effect the other way; the % refers to the signal ratio; also: potency is read from the fitted curve at half-maximal effect; as to activity change, negative = inhibition: % is scaled to controls: 0 for no effect and ±100 for the full control effect); conditions: CRE-bla HEK293T, beta-lactamase FRET ratio; activity change, negative = inhibition: at 92.4 µM (top of the series) unless noted
Method in brief: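 Fluorescence intensity from cleaved LiveBLAzer B/G substrate (2 h, room temperature) quantified CRE-bla activity in HEK 293T cells exposed 3 h to compound with 0.25 uM final NKH477.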

[10] = target: Beta-2 adrenergic receptor (Homo sapiens) (UniProt P07550); assay: Adrenergic beta2 receptor (ADRB2) small molecule agonists, cell-based qHTS assay (AID 1963593); conditions: CHO-ADRB2 cells, cAMP HTRF, 30 min; activation: at 92.4 µM (top of the series) unless noted; also: potency is read from the fitted curve at half-maximal effect;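 as to activation: CHO cells stably overexpressing human ADRB2; % is scaled to controls: 0 for no effect and ±100 for the full control effect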
Method in brief: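 CHO cells stably over-expressing ADRB2 were plated overnight at 37C, then dosed with compounds plus a stimulation mix containing 100uM IBMX and 25uM Ro-20-1724 for 0.5hr at room temperature. cAMP was measured by HTRF competition, 1hr.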

[11] = target: Beta-2 adrenergic receptor (Homo sapiens) (UniProt P07550); assay: Adrenergic beta2 receptor (ADRB2) small molecule antagonists, cell-based qHTS assay (AID 1963592); conditions: CHO-ADRB2 cells, isoproterenol-stimulated cAMP HTRF ratio, 0.5 h; activity change, negative = inhibition: at 92.4 µM (top of the series) unless noted; also: nearly all actives have a fitted effect of over 50% in size; also: potency is read from the fitted curve at half-maximal effect
Method in brief: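 Assay format: CHO-ADRB2 cells, 18-20hr seeding at 37C/5% CO2, then compound plus 1nM isoproterenol agonist mix for 0.5hr RT. Homogeneous time-resolved fluorescence cAMP detection after 1hr, expressed as 665/615 nm ratio.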

[12] = target: Muscarinic acetylcholine receptor M1 (Homo sapiens) (UniProt P11229); assay: Cholinergic receptor muscarinic 1 (CHRM1) small molecule antagonists, cell-based qHTS assay (AID 1963588); also: potency is read from the fitted curve at half-maximal effect; nearly all actives have a fitted effect of over 40% in size
Method in brief: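 Compounds were tested at 15 concentrations in three independent runs. Dye-loaded CHRM1-CHO cells were exposed 5 min at room temperature before stimulation by acetylcholine added at 50nM. Intracellular calcium was read kinetically on FDSS for 3 min.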

[13] = p53 small molecule agonists, cell-based qHTS assay with human liver microsomes (AID 1963577); conditions: HCT-116 p53RE-bla with human liver microsomes, ratio, 16 h; activation: at 66 µM (top of the series) unless noted; also: potency is read from the fitted curve at half-maximal effect
Method in brief: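 16 h, 37 C exposure of p53RE-bla cells to compounds with human liver microsomes and NADPH (0.5 mg/mL final each); detection via LiveBLAzer mixture, 2 h dark at room temperature.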

[14] = p53 small molecule agonists, cell-based qHTS assay with human liver microsomes: qHTS cell viability counter screen (AID 1963579); also: nearly all actives have a fitted effect of over 45% in size; also: potency is read from the fitted curve at half-maximal effect
Method in brief: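 In this multiplexed counter screen, the reporter plates were subsequently treated with CellTiter-Glo so that cell viability, reflected by luminescence, could be recorded for p53RE-bla cells dosed 16 h with compounds under microsomal activation (HLM and NADPH).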

[15] = target: D(2) dopamine receptor (Homo sapiens) (UniProt P14416); assay: Dopamine D2 receptor (DRD2) small molecule agonists, cell-based qHTS assay (AID 1963594); conditions: HEK293-DRD2 cAMP HTRF, agonist mode, 30 min; activation: at 92.4 µM (top of the series) unless noted; also: nearly all actives have a fitted effect of over 35% in size; also: potency is read from the fitted curve at half-maximal effect
Method in brief: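 HEK293 cells stably expressing human DRD2, pre-treated with PDE inhibitor Ro20-1724 (0.1 mM final) and compound 10 min at room temperature, then stimulated with NKH477 (200nM […]) for 30 min. cAMP read by HTRF (665/620 nm).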

[16] = target: D(2) dopamine receptor (Homo sapiens) (UniProt P14416); assay: Dopamine D2 receptor (DRD2) small molecule antagonists, cell-based qHTS assay (AID 1963595; active = well fitted inhibition curve with a large enough effect in the signal ratio in the repeat runs, with a control signal flat; inconclusive = weak or mixed curves, or effect the other way; the % refers to the signal ratio; also: potency is read from the fitted curve at half-maximal effect); conditions: HEK293-DRD2 cAMP HTRF antagonist mode; activity change, negative = inhibition: at 92.4 µM (top of the series) unless noted
Method in brief: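 Stable D2 receptor HEK293 line, 24 h after seeding. Compound preincubated 10 min, then quinpirole (12 nM) with forskolin analogue NKH477 (200 nM), 30 min, room temperature. Detection by time-resolved FRET of cAMP.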

[17] = cAMP Responsive Elements (CRE) small molecule agonists, cell-based qHTS assay (AID 1963590); conditions: CRE-bla HEK293T, beta-lactamase FRET ratio, 3 h; activation: at 92.4 µM (top of the series) unless noted; also: potency is read from the fitted curve at half-maximal effect
Method in brief: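 Quantitative HTS for CRE agonists: HEK 293T CRE-bla cells, overnight plating, 3 h compound incubation at 37 C/5% CO2, then 2 h room-temperature LiveBLAzer B/G FRET substrate loading.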

CCOC(=O)C1=C[C@]2(CC)CCCN3CCc4c(n1c1ccccc41)[C@@H]32
active: Potency [5] 23.9 µM
inconclusive: Potency [1] 26.6 µM [activator, partial curve, poor fit] | Potency [2] 15.1 µM [activator, partial curve] | Potency [3] 5.61 µM [cytotoxic, single point] | Potency [4] 5.61 µM [falling, single point]

CC(=O)C1(C)CC2=C(CCCC2(C)C)CC1C (stereo not drawn)
inactive: Potency [6] | Potency [4] | Potency [8] | Potency [9]
inconclusive: Potency [1] 68.6 µM [activator, single point] | Potency [7] 9.75 µM [cytotoxic, single point] | activation [10] -4.01%

c1ccc2c(c1)ccc1ncccc12
inconclusive: Potency [1] 60.7 µM [activator, single point] and 61.1 µM [activator, single point] | Potency [7] 40.8 µM [cytotoxic, single point] | Potency [9] 54.1 µM [inhibitor, partial curve] and 11.4 µM [activator, full curve, poor fit] | Potency [11] 0.0383 µM [inhibitor, full curve, poor fit] | activation [10] -31.2% and -42%
inactive: Potency [2]

CCOC(=O)c1ccc(N(C)C)cc1
inactive: Potency [2]
inconclusive: Potency [1] 30.6 µM [activator, partial curve] | Potency [12] 47.2 µM [inhibitor, partial curve, poor fit]

CC(=O)N[C@@H](CO)C(=O)N[C@@H](CC(=O)O)C(=O)N[C@@H](CCCCN)C(=O)N1CCC[C@H]1C(=O)O (Ac-SDKP-OH)
inactive: Potency [1] | Potency [13] | Potency [14] | Potency [4] | Potency [11] | Potency [10]

C=Cc1c(C)c2cc3[nH]c(cc4nc(cc5nc(cc1[nH]2)C(C)=C5CCC(=O)O)C(CCC(=O)O)=C4C)c(C)c3C=C
inactive: Potency [8]
inconclusive: Potency [1] 37.6 µM [activator, single point] | Potency [13] 12.6 µM [rising, partial curve, poor fit] | Potency [14] 1.41 µM [rising, partial curve, poor fit] | activation [10] -25% [at 42.5 µM] | Potency [15] 29.8 µM [falling, partial curve, poor fit] | activity change, negative = inhibition [16] -8.42% [at 42.5 µM]

Cc1oc(-c2ccccc2)nc1CCOc1cccc2c1ccn2CCC(=O)O
inconclusive: Potency [13] 14.5 µM [rising, full curve] | Potency [4] 18.2 µM [rising, partial curve] | Potency [5] 61.6 µM [activator, partial curve, poor fit] | Potency [9] 68.6 µM [fluorescent] | activation [10] -47.7%
inactive: Potency [1]

Two records drawn at random from the list so far, as already listed:
CCOC(=O)C1=C[C@]2(CC)CCCN3CCc4c(n1c1ccccc41)[C@@H]32
active: Potency [5] 23.9 µM
inconclusive: Potency [1] 26.6 µM [activator, partial curve, poor fit] | Potency [2] 15.1 µM [activator, partial curve] | Potency [3] 5.61 µM [cytotoxic, single point] | Potency [4] 5.61 µM [falling, single point]

CC(=O)C1(C)CC2=C(CCCC2(C)C)CC1C (stereo not drawn)
inactive: Potency [6] | Potency [4] | Potency [8] | Potency [9]
inconclusive: Potency [1] 68.6 µM [activator, single point] | Potency [7] 9.75 µM [cytotoxic, single point] | activation [10] -4.01%

Further structures follow:

O=C(N[C@H](CO)[C@H](O)c1ccc([N+](=O)[O-])cc1)C(Cl)Cl
inactive: Potency [17] | Potency [9] | Potency [11]
inconclusive: Potency [1] 0.0969 µM [activator, single point] | Potency [13] 45.8 µM [fluorescent, single point] | Potency [4] 0.0011 µM | Potency [10] 13.7 µM [inhibitor, partial curve, poor fit] | activation [15] 0.582%

CC(C)=CCCC(C)CCOC=O (stereo not drawn)
inactive: Potency [13] | Potency [14]
inconclusive: Potency [1] 68.6 µM [activator, single point]

O=C1C=CC(=O)N1
inconclusive: Potency [1] 15.8 µM [activator, single point] | activation [13] 0.756% | Potency [3] 52.7 µM [cytotoxic, single point] | Potency [4] 41.9 µM [rising, single point] | Potency [17] 70.4 µM | Potency [9] 25 µM [inhibitor] | Potency [11] 8.86 µM [activator, partial curve, poor fit] | Potency [10] 8.86 µM [activator, partial curve, poor fit] | Potency [16] 70.4 µM [inhibitor, single point]
active: Potency [14] 21 µM | Potency [7] 29.6 µM

Brc1ccccc1-c1ccccc1
inconclusive: Potency [1] 25.8 µM [activator, full curve, poor fit] | activation [13] 15.7% | Potency [3] 0.129 µM [cytotoxic, partial curve, poor fit] | Potency [5] 49 µM [activator] | Potency [10] 0.029 µM [inhibitor, full curve, poor fit] | activation [15] -21%
